# Reference: PubChem BioAssay AID504804 (Drosophila RNAi Screening Center, 2011)
# Purpose: 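Fly genes whose loss lessens doxorubicin-driven cell death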 (primary screen)
# Cell system: Drosophila Kc cells
# Reagent: long dsRNA against Drosophila genes, 0.5 µg dsRNA per well
# Duration: 96 h (48 h knock-down, then 48 h drug)
# Treatment: doxorubicin 5 µg/ml for 48 h, added 48 h after dsRNA
# Measured: 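Luminescent ATP counts per replicate, not normalised, reflecting viable cells after 48 h dsRNA knock-down followed by 48 h of 5 µg/ml doxorubicin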
# Direction: raw ATP luminescence: higher = more viable cells, protection from doxorubicin
# Call rule: 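z-score of 2 or more over plate mean in both duplicates, retained only when retests and separate dsRNAs confirm the protection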
# The deposit covers about 19,000 reagents; shown is an unselected part of those that have a named target and a result. Over the whole deposit, 47 (0.25%) were called active. 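Signals are raw, not normalised; exact z-scores behind calls not deposited; actives needed confirmation, so some wells reaching 2 SD are inactive.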 Unmarked entries are inactive. Reagents against one gene are numbered here.
predicted target,reagent no.,"raw ATP luminescence, replicate 1","raw ATP luminescence, replicate 2"
CG8927,1,57040,77290
CG15475,1,52587,49570
Socs16D (Suppressor of Cytokine Signaling at 16D),1,3.02e5,1.87e5
18w (18 wheeler),1,49043,49000
CG34253,1,71410,79320
CG10336,1,79643,71793
Gycbeta100B (Guanylyl cyclase beta-subunit at 100B),1,1.91e5,1.99e5
Gycbeta100B (Guanylyl cyclase beta-subunit at 100B),2,2.32e5,2.15e5
Scr (Sex combs reduced),1,33403,36393
gw (gawky),1,19480,25340
Sodq (Sodesque),1,56010,52250
YME1L (YME1 like ATPase),1,78887,60313
Cf2 (Chorion factor 2),1,12733,16840
Cyp40 (Cyclophilin 40),1,35487,32010
CkIIalpha (casein kinase IIalpha),1,71047,70400
CG8245,1,61367,54523
brun (brunelleschi),1,89840,82610
CG13972,1,42160,52410
AOX2 (Aldehyde oxidase 2),1,77660,59820
Hacd1 (3-hydroxyacyl-CoA dehydratase 1),1,1.01e5,62440
MICU3 (Mitochondrial calcium uptake 3),1,2.02e5,1.92e5
MICU3 (Mitochondrial calcium uptake 3),2,42720,38103
CG33095,1,61030,62550
CG42747,1,96390,1.00e5
CG42747,2,56350,71317
Cyp316a1 (Cytochrome P450 316a1),1,90163,86143
CG5555,1,66027,55470
Or85a (Odorant receptor 85a),1,65487,55200
Tmem63 (Transmembrane protein 63),1,34120,62553
Adsl (Adenylosuccinate lyase),1,58253,43713
sw (short wing),1,2.21e5,2.17e5
Rbcn-3B (Rabconnectin-3B),1,60650,53900
L2HGDH (L-2-hydroxyglutarate dehydrogenase),1,1.08e5,83163
CG7997,1,58870,51723
Sec20 (Secretory 20),1,76733,52960
Fdh (Formaldehyde dehydrogenase),1,44407,21477
ord (orientation disruptor),1,39890,57503
mst (misato),1,3.23e5,2.71e5
CG30196,1,62770,51177
CG9331,1,65173,68657
toe (twin of eyg),1,1.51e5,1.50e5
toe (twin of eyg),2,54363,41457
CG13297,1,76550,79163
CG15468,1,53520,51640
Gasp,1,1.03e5,37807
CG11458,1,53373,43263
CG13293,1,88190,97580
stops (slow termination of phototransduction),1,46830,43340
stops (slow termination of phototransduction),2,55620,43000
stops (slow termination of phototransduction),3,47660,46750
CG18128,1,51993,75600
CG32988,1,32937,52673
ND-B8 (NADH dehydrogenase (ubiquinone) B8 subunit),1,25877,31113
CG18094,1,74083,59533
CG12126,1,57193,78307
Pdfr (Pigment-dispersing factor receptor),1,43830,45730
Tomosyn,1,3.38e5,3.54e5
Tomosyn,2,4.31e5,4.52e5

A few values from the list:
Value for Gycbeta100B (Guanylyl cyclase beta-subunit at 100B) #1 in “raw ATP luminescence, replicate 2”: 1.99e5
Under “raw ATP luminescence, replicate 2”, ND-B8 (NADH dehydrogenase (ubiquinone) B8 subunit) is entered as 31113
Under “raw ATP luminescence, replicate 2”, CG34253 reads 79320
Rbcn-3B (Rabconnectin-3B), raw ATP luminescence, replicate 1: 60650
Pdfr (Pigment-dispersing factor receptor), raw ATP luminescence, replicate 1: 43830
Socs16D (Suppressor of Cytokine Signaling at 16D), raw ATP luminescence, replicate 2 → 1.87e5
